Measured data: PubChem BioAssay AID1259405 (NCATS, 2018)

Test: 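Silenced genes that increase secreted GFP made by CHO cells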 (primary screen)
System: Chinese hamster CHO-K1 ovary cells with stable secreted eGFP expression
Reagent: single siRNA against mouse genes, 0.8 pmol siRNA per well (2 µl of 400 nM stock)
Time to read-out: 3 days
Detection: 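Percent of the per-plate non-targeting control median for intracellular GFP per well by laser scanning cytometry and for cell viability by ATP luminescence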
Direction: GFP, % of control: higher = more GFP per well, higher productivity; viability (ATP), % of control: higher = more viable cells (more ATP)
Active means: 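a knock-down is called active if GFP reaches 120% or more of non-targeting control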
The whole screen tested about 50,000 reagents; below is a random part of them. Over the whole deposit, about 4,000 (8%) are marked active. 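Mouse siRNA library applied to hamster cells; one well for each siRNA.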 The numbers tell different reagents against one gene apart. No sequences are given here.

Gene | reagent no. | GFP, % of control | viability (ATP), % of control | activity call
B4galnt2 (GeneID 14422) | 1 | 135 | 55.8 | active
B4galnt2 (GeneID 14422) | 2 | 87.4 | 74.6 | inactive
Mbd2 (GeneID 17191) | 1 | 52.7 | 83.2 | inactive
Mbd2 (GeneID 17191) | 2 | 66.5 | 58.7 | inactive
Mbd2 (GeneID 17191) | 3 | 51 | 72.6 | inactive
Zbtb1 (GeneID 268564) | 1 | 101 | 108 | inactive
Zbtb1 (GeneID 268564) | 2 | 83.4 | 66.8 | inactive
Zbtb1 (GeneID 268564) | 3 | 105 | 84.9 | inactive
Crebbp (GeneID 12914) | 1 | 98.3 | 90.9 | inactive
Crebbp (GeneID 12914) | 2 | 112 | 71 | inactive
Crebbp (GeneID 12914) | 3 | 64.9 | 53.3 | inactive
Lalba (GeneID 16770) | 1 | 93.4 | 101 | inactive
Lalba (GeneID 16770) | 2 | 42.5 | 76.5 | inactive
Lalba (GeneID 16770) | 3 | 99 | 113 | inactive
Cdca2 (GeneID 108912) | 1 | 61.5 | 78.6 | inactive
Cdca2 (GeneID 108912) | 2 | 102 | 88.9 | inactive
Cdca2 (GeneID 108912) | 3 | 82.7 | 82.5 | inactive
Col5a3 (GeneID 53867) | 1 | 44.7 | 40.3 | inactive
Col5a3 (GeneID 53867) | 2 | 41.3 | 34.4 | inactive
Col5a3 (GeneID 53867) | 3 | 123 | 50.1 | active
Cimip3 (GeneID 75462) | 1 | 125 | 88.8 | active
Cimip3 (GeneID 75462) | 2 | 65.5 | 61.6 | inactive
Cimip3 (GeneID 75462) | 3 | 55.3 | 55.4 | inactive
Fau (GeneID 14109) | 1 | 74.4 | 88.8 | inactive
Fau (GeneID 14109) | 2 | 126 | 103 | active
Fau (GeneID 14109) | 3 | 86.8 | 61.3 | inactive
Rbm15b (GeneID 109095) | 1 | 71.7 | 97.7 | inactive
Rbm15b (GeneID 109095) | 2 | 69.6 | 62.2 | inactive
Rbm15b (GeneID 109095) | 3 | 63.7 | 98.3 | inactive
Sec22c (GeneID 215474) | 1 | 45.6 | 48.7 | inactive
Sec22c (GeneID 215474) | 2 | 14.6 | 17.3 | inactive
Sec22c (GeneID 215474) | 3 | 78.2 | 72.1 | inactive
Dync1i1 (GeneID 13426) | 1 | 79.2 | 82.3 | inactive
Dync1i1 (GeneID 13426) | 2 | 99.8 | 110 | inactive
Ppm1e (GeneID 320472) | 1 | 91.9 | 95.6 | inactive
Ppm1e (GeneID 320472) | 2 | 87.4 | 73.7 | inactive
Ppm1e (GeneID 320472) | 3 | 82.2 | 74.5 | inactive
Cops3 (GeneID 26572) | 1 | 66.4 | 56 | inactive
Cops3 (GeneID 26572) | 2 | 89.7 | 68.3 | inactive
Hyal3 (GeneID 109685) | 1 | 131 | 84.3 | active
Hyal3 (GeneID 109685) | 2 | 121 | 143 | active
Hyal3 (GeneID 109685) | 3 | 96.7 | 140 | inactive
Pld5 (GeneID 319455) | 1 | 59 | 75.3 | inactive
Pld5 (GeneID 319455) | 2 | 95.6 | 86.1 | inactive
Pld5 (GeneID 319455) | 3 | 83.2 | 75.4 | inactive
Cln6 (GeneID 76524) | 1 | 47 | 81 | inactive
Cln6 (GeneID 76524) | 2 | 121 | 71.4 | active
Cln6 (GeneID 76524) | 3 | 94 | 93.2 | inactive
Nono (GeneID 53610) | 1 | 56.6 | 65 | inactive
Nono (GeneID 53610) | 2 | 84.6 | 82.1 | inactive
Igf2bp2 (GeneID 319765) | 1 | 56.6 | 61 | inactive
Igf2bp2 (GeneID 319765) | 2 | 49 | 61 | inactive
Igf2bp2 (GeneID 319765) | 3 | 74.3 | 64.2 | inactive
Tnfsf11 (GeneID 21943) | 1 | 88.8 | 106 | inactive
Tnfsf11 (GeneID 21943) | 2 | 104 | 110 | inactive
Akr1b8 (GeneID 14187) | 1 | 45.6 | 51.4 | inactive
Akr1b8 (GeneID 14187) | 2 | 72.6 | 73.8 | inactive
Akr1b8 (GeneID 14187) | 3 | 80.6 | 68.2 | inactive
Cdkl3 (GeneID 213084) | 1 | 160 | 95.1 | active
Cdkl3 (GeneID 213084) | 2 | 48.9 | 46.4 | inactive
Cdkl3 (GeneID 213084) | 3 | 84.5 | 78.7 | inactive
Pdcd10 (GeneID 56426) | 1 | 78.6 | 101 | inactive
Pdcd10 (GeneID 56426) | 2 | 54.8 | 69.5 | inactive
Pdcd10 (GeneID 56426) | 3 | 125 | 70.6 | active
Prr27 (GeneID 73779) | 1 | 71.5 | 60.4 | inactive
Prr27 (GeneID 73779) | 2 | 47.2 | 51.8 | inactive
Prr27 (GeneID 73779) | 3 | 104 | 81.6 | inactive
Klra22 (GeneID 93969) | 1 | 66.4 | 74.4 | inactive
Klra22 (GeneID 93969) | 2 | 137 | 73.2 | active
Klra22 (GeneID 93969) | 3 | 179 | 46.7 | active
Tlr13 (GeneID 279572) | 1 | 59.8 | 70.3 | inactive
Tlr13 (GeneID 279572) | 2 | 84 | 83.6 | inactive
Tlr13 (GeneID 279572) | 3 | 74.1 | 89.6 | inactive
Rom1 (GeneID 19881) | 1 | 113 | 99.7 | inactive
Rom1 (GeneID 19881) | 2 | 67.4 | 74.5 | inactive
Rom1 (GeneID 19881) | 3 | 87 | 68.1 | inactive
Unc45b (GeneID 217012) | 1 | 39.1 | 51.6 | inactive
Unc45b (GeneID 217012) | 2 | 79.9 | 34.4 | inactive
Unc45b (GeneID 217012) | 3 | 87.7 | 68.8 | inactive
Tigd4 (GeneID 403175) | 1 | 29 | 69.2 | inactive
Tigd4 (GeneID 403175) | 2 | 120 | 85.8 | inactive
Tigd4 (GeneID 403175) | 3 | 104 | 94.2 | inactive
Tmem144 (GeneID 70652) | 1 | 118 | 83.9 | inactive
Tmem144 (GeneID 70652) | 2 | 86.5 | 96.1 | inactive
Tmem144 (GeneID 70652) | 3 | 100 | 79.4 | inactive
